Results are given in words; binding and its absence hold for the method and conditions named. Binding seen in cells or lysates may run through a third protein. A result given as binding can be weak or reduced; the word gives no strength. For some assays here: Sequences can lack the tags named with a protein.
How the values were obtained:
[1] = target: PCDH19 GST-CT1 (proximal region of the C-terminal tail) (UniProt Q8TAB3); experiment: pull-down; GST fusion proteins immobilized on glutathione-Sepharose 4B beads, incubated overnight at 4°C with lysates of transfected HEK293T cells (modified RIPA buffer); western blot; only the target purified
[2] = target: PCDH19 GST-CT (entire intracellular C-terminal tail) (UniProt Q8TAB3); experiment: as above
[3] = target: PCDH19 GST-CT1 (proximal region of the C-terminal tail) (UniProt Q8TAB3); experiment: pull-down; GST fusion proteins immobilized on glutathione-Sepharose 4B beads, incubated overnight at 4°C with rat brain (cortex plus hippocampus) homogenate (modified RIPA buffer); western blot; only the target purified
[4] = target: PCDH19 GST-CT (entire intracellular C-terminal tail) (UniProt Q8TAB3); experiment: as above
[5] = target: T1, GABAAR alpha 1 GST-TM-A1 (amino acids 334-343) (UniProt P62813); experiment: as above
T1 sequence: NYFTKRGYAW

Protein sequences, listed by entry. Tags and fused reporters are not part of them. Lines headed by an entry give the natural chain unless they say otherwise; changes in a name come on top. Residues count along the entry.
UniProt Q8TAB3: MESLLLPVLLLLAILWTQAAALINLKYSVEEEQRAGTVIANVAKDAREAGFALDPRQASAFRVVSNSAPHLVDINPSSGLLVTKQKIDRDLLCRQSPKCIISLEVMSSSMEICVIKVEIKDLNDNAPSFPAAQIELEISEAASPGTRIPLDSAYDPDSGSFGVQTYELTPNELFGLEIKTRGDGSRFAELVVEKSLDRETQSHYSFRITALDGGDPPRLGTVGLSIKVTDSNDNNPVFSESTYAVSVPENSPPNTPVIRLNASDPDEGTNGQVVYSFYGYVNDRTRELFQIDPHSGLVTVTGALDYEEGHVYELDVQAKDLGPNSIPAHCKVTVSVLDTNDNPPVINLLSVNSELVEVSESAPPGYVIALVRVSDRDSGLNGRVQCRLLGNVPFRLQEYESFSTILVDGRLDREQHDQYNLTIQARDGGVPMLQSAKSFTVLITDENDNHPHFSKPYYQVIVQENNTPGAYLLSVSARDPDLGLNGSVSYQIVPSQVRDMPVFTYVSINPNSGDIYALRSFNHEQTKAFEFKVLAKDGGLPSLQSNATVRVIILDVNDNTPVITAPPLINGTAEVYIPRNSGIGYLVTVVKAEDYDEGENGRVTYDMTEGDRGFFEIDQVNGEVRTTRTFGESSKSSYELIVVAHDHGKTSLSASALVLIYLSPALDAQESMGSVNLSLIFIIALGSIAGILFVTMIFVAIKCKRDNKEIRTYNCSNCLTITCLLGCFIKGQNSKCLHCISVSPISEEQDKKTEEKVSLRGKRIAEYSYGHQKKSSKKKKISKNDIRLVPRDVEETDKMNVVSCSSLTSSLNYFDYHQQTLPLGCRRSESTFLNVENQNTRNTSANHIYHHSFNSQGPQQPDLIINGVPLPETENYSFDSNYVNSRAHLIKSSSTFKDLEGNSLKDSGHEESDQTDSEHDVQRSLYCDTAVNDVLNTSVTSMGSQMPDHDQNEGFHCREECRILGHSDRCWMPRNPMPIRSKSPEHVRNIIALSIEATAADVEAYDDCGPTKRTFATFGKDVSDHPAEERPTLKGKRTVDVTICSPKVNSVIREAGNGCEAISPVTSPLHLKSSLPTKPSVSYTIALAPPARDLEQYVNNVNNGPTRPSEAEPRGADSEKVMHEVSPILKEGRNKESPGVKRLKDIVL
UniProt P62813, residues 28-455: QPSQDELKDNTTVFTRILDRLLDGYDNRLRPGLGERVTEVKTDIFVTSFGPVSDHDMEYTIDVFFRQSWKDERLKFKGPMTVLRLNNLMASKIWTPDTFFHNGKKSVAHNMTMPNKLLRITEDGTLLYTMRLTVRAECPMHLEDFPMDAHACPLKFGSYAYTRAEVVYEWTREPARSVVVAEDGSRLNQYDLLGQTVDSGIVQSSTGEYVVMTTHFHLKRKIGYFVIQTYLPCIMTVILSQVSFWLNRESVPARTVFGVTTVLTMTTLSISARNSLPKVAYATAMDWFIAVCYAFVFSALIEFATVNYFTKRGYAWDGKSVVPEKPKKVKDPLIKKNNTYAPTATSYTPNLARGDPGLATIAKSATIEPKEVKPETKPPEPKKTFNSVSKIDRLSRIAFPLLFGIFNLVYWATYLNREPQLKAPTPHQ
UniProt P20236, residues 29-493: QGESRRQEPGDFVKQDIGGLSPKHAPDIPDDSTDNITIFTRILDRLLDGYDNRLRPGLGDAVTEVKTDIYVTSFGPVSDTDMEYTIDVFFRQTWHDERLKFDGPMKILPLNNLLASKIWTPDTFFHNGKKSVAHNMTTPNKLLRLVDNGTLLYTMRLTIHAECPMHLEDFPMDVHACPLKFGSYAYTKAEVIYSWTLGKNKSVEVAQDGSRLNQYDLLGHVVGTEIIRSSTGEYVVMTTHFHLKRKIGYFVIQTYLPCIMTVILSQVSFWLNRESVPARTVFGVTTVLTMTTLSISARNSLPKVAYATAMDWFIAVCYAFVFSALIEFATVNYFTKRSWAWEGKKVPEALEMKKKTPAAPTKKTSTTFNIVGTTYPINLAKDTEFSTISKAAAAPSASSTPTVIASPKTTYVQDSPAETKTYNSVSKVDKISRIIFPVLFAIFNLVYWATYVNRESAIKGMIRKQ
UniProt P63079, residues 26-473: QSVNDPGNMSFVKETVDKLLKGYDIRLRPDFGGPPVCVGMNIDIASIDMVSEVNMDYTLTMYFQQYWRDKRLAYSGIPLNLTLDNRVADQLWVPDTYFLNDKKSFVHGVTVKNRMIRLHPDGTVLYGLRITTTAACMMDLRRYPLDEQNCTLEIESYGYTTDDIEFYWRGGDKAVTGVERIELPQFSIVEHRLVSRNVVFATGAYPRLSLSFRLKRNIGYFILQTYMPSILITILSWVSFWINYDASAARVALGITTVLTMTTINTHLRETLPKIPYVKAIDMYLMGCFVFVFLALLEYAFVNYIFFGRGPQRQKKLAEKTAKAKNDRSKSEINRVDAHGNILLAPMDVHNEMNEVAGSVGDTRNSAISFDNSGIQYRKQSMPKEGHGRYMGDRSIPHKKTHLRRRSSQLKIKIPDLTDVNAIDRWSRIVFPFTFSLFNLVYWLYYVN
UniProt P18508, residues 39-466: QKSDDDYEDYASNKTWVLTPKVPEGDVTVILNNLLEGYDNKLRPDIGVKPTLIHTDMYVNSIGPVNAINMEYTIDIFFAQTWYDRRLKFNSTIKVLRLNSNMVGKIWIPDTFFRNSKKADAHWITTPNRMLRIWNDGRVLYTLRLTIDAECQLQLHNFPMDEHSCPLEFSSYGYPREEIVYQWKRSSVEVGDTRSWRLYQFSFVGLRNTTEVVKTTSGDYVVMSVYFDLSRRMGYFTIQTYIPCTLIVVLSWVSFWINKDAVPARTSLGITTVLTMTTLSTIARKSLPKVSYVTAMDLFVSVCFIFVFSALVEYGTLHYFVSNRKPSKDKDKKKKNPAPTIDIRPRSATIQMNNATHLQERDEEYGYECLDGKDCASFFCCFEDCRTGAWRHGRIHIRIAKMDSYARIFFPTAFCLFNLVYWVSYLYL

Substance	binding [4]	further results
GABAAR myc-alpha 1 subunit (from UniProt P62813 28-455) (receptor)		binding [1]: binds; binding [2]: binds
endogenous GABAAR alpha 1 subunit (rat) (from UniProt P62813 28-455) (receptor)	binds	binding [3]: binds
endogenous GABAAR alpha 3 subunit (rat) (from UniProt P20236 29-493) (receptor)	binds	
endogenous GABAAR beta 3 subunit (rat) (from UniProt P63079 26-473) (receptor)	binds	
endogenous GABAAR gamma 2 subunit (rat) (from UniProt P18508 39-466) (receptor)	binds	
endogenous PCDH19 (rat)		binding [5]: binds
